Data on one substance can be found in PMC11317454.

Amino acid sequences for entries named in this document (tags omitted).
UniProt Q92794: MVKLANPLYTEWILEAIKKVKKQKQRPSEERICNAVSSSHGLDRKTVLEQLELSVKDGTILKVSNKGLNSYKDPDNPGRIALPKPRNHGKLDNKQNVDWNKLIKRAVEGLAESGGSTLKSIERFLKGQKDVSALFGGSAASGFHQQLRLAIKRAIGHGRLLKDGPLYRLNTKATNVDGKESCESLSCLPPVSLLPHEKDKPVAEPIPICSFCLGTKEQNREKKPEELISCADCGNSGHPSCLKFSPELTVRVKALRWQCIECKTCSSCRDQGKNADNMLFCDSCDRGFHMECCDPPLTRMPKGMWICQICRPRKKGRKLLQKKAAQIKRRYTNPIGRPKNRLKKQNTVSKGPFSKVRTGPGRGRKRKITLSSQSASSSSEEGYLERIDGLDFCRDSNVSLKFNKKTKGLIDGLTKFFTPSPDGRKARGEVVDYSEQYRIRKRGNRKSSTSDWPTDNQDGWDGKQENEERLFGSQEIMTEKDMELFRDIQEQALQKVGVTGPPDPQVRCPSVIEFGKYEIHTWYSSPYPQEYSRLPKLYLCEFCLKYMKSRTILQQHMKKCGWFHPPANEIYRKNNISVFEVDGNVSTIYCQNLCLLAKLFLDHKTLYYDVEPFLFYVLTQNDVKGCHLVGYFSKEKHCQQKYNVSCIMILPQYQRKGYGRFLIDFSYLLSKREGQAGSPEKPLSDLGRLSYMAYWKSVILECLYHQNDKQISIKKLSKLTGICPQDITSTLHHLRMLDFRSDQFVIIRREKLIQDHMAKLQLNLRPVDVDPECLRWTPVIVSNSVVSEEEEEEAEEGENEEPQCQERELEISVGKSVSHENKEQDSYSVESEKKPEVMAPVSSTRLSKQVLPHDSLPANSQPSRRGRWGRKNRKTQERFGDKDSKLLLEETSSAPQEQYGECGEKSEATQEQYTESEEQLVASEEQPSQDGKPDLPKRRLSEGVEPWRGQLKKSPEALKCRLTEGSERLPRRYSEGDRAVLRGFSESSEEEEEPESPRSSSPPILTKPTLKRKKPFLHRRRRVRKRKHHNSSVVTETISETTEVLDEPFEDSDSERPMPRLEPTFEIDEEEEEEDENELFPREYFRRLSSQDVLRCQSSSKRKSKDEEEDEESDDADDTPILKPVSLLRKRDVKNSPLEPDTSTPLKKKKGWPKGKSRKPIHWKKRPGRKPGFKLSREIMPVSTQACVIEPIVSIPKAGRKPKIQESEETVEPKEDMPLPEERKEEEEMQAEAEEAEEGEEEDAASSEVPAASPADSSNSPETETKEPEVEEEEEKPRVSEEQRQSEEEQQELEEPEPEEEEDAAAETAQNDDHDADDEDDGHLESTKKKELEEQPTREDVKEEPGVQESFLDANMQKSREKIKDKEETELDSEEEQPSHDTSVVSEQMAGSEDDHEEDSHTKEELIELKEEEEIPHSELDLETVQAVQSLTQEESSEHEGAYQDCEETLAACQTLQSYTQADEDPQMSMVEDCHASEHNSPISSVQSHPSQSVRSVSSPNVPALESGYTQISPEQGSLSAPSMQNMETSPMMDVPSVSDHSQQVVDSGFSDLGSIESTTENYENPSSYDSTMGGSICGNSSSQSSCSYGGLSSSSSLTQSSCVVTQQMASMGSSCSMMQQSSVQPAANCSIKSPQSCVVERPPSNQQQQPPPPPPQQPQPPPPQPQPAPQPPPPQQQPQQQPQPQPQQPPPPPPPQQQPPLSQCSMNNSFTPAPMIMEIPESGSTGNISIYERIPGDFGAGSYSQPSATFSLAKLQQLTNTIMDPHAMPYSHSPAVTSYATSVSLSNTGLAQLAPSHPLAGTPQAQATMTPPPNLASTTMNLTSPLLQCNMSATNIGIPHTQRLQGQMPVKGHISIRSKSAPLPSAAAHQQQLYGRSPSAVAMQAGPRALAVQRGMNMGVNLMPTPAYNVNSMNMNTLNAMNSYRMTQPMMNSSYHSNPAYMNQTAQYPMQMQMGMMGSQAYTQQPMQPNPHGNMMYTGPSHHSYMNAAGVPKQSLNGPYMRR
UniProt P46937: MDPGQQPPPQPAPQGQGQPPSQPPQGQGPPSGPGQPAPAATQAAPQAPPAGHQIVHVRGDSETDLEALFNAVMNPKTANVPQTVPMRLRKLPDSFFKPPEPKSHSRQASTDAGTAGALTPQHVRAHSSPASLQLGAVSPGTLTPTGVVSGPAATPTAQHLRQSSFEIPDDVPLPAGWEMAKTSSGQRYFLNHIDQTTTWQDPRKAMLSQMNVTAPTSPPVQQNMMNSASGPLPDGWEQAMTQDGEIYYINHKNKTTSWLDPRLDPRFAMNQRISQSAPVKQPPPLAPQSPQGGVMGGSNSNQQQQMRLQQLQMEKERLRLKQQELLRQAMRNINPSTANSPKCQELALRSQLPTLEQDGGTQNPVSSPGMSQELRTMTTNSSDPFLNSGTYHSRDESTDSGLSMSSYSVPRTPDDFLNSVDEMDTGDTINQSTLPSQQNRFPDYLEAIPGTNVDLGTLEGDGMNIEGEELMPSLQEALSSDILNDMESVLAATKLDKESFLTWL

No constants are given. Whether binding was seen depends on the method and setting. In cells and extracts the contact can be indirect. A yes stands for co-enrichment or nearness to the bait. Other partners may have been found.

This test has as its target KAT6A (human (endogenous in PDLSCs)) (UniProt Q92794). Kind of test: affinity purification with mass spectrometry; KAT6A-associated proteins collected from PDLSC lysate as in the Co-IP assay (anti-KAT6A, protein A-Sepharose), SDS-PAGE with silver staining, LC-MS/MS; IgG group as negative reference.

On to YAP (from UniProt P46937 1-504), for which the binding entry is “binds”.
